Source: PubChem BioAssay AID493014 (National Center for Advancing Translational Sciences (NCATS), 2011)
The other results are listed elsewhere or left out. Shown are side measurements of this screen, not its main read-out; they come without a call. Compounds called inactive in the main read-out are mostly missing here. Potencies come from curve fits of mixed quality, noted in brackets.

Assay: qHTS Assay to Find Inhibitors of Chronic Active B-Cell Receptor Signaling
Settings: ABC-DLBCL IkBa-CBG/CBR reporter, luminescence ratio (green luciferase fused to IkBa over red control in TMD8 lymphoma cells), 4 h
Outline: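 Compounds up to 46 uM were incubated four hours with TMD8 cells whose green CBG68 luciferase is fused to IkappaBalpha; red CBR luminescence normalised the signal, and concentration-effect curves were fitted to fusion, red and ratio data.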

[1] = measured here: CBR red luminescence, cell number

Row | Compound | AC50 [1] | AC50 (measured here: IkBa-CBG green luminescence)
1 | OCCSc1ncnc2c1oc1ccccc12 | 2.51 µM [falling, single point] | –
2 | Nc1ccc2nc(NC(=O)C3CCCCC3)sc2c1 | 7.08 µM [falling, partial curve, poor fit] | –
3 | O=C(Nc1ccc2c(c1)C(=O)NC2=O)c1ccccc1Cl | 35.5 µM [falling, single point] | –
4 | COC(=O)Nc1nnc(/C=C/c2ccccc2)s1 | 1.16 µM [rising, partial curve, poor fit] | –
5 | O=C(N/N=C/c1cccs1)c1[nH]ncc1Br | 14.1 µM [falling, partial curve] | –
6 | O=C(CN1C(=O)N/C(=C\c2ccccc2OCc2ccc(C(=O)O)cc2)C1=O)Nc1ccccc1F | 0.112 µM [falling, partial curve, poor fit] | –
7 | C=CCn1c(NCc2cc(C)ccc2O)nc2ccccc21 | 29.1 µM [falling, single point] | –
8 | Clc1ccccc1CSC1=NCCN1 | 35.5 µM [falling, single point] | –
9 | O=C(N/N=C/c1ccncc1)c1nn(Cc2ccccc2)c(=O)c2ccccc12 | 35.5 µM [falling, single point] | –
10 | O=C(CCCc1nc(-c2ccccc2)no1)NC1CCCCC1 | 14.1 µM [rising, partial curve, poor fit] | 5.62 µM [rising, partial curve, poor fit]
11 | Nc1nnnn1CC(=O)N/N=C/C=C/c1ccccc1 | 17.8 µM [rising, single point] | –
12 | COC(=O)c1cc(=O)n(CCc2ccccc2F)c(=Nc2ccc(F)c(Cl)c2)s1 | 5.17 µM [falling, full curve] | –
13 | COc1cc2cnc(CCO[C@H]3CCCCO3)cc2cc1OC | 32.6 µM [rising, single point] | –
14 | O=C(NCc1cc(F)cc(C(F)(F)F)c1)C1CCC(=O)N(C2CCCC2)C1 (configuration not stated) | 20 µM [falling, single point] | –
15 | COc1ccc2sc(N(CCCN(C)C)C(=O)c3ccc(S(=O)(=O)N4CCCC4)cc3)nc2c1 | 0.58 µM [falling, full curve, poor fit] | –
16 | CCSc1ccccc1C(=O)NCc1cccnc1 | 5.62 µM [falling, single point] | –
17 | CCN(CC)CCP(=O)(c1ccccc1)c1ccccc1 | 32.6 µM [rising, single point] | –
18 | O=C1NC(=S)N/C1=C/c1cccc2ccccc12 | 11.2 µM [rising, partial curve, poor fit] | –
19 | COc1cc(NC(=O)c2cccc(C)c2)ccc1NC(=O)c1cc2ccccc2o1 | 7.94 µM [rising, partial curve, poor fit] | –
20 | CN1CCc2c(sc3c2C(=O)NC(c2ccc4c(c2)OCO4)N3)C1 (configuration not stated) | 23.1 µM [falling, partial curve, poor fit] | –
21 | CCOc1ccc(NC(=S)N2CCC(c3nc4ccccc4[nH]3)CC2)cc1 | 17.8 µM [rising, partial curve, poor fit] | –
22 | Clc1ccc(-n2cccc2)cn1 | 11.2 µM [rising, partial curve, poor fit] | –

Row | Compound | AC50 [1] | AC50 (measured here: IkBa-CBG green luminescence)
23 | N#Cc1c(-c2ccccc2)cc2nc3ccccc3n2c1N | 14.6 µM [falling, partial curve, poor fit] | –
24 | CN(C)C(=O)c1ccccc1-c1ccccc1 | 29.1 µM [rising, single point] | –
25 | C=CCNC(=O)C(=O)NCC(c1ccc2c(c1)OCO2)N1CCN(c2ccc(F)cc2)CC1 (configuration not stated) | 20 µM [falling, partial curve] | –
26 | Cc1ccc(-n2cnc3sc(C)c(C)c3c2=O)cc1 | 22.4 µM [rising, partial curve, poor fit] | –
27 | Cn1c(CCNC(=O)c2ccco2)nc2cc(NC(=O)c3ccco3)ccc21 | 13 µM [falling, partial curve] | –
28 | C[C@H](CO)N1C[C@H](C)[C@@H](CN(C)Cc2ccncc2)Oc2c(cccc2N(C)C)C1=O | 0.116 µM [rising, full curve, poor fit] | –
29 | COCc1cc(Sc2ccc(OC)cc2)nc(-c2ccccc2)n1 | 6.31 µM [rising, full curve, poor fit] | –
30 | CSc1ccc(/C=C/C(=O)c2ccc(NC(=O)Cc3ccccc3)cc2)cc1 | 20 µM [falling, single point] | –
31 | CC(C)CNc1c(N)c(=O)oc2ccccc12 | 2.59 µM [falling, partial curve] | –
32 | Cc1cc(C(=O)Nc2nc3c(s2)CCCC3)no1 | 6.51 µM [falling, partial curve] | –
33 | Cc1cccc(NC(=O)N2CCC(NC(=O)C3CCCCC3)CC2)c1 | 3.98 µM [rising, partial curve, poor fit] | –
34 | O=C1C=C(c2ccc(OC(F)(F)F)cc2)C[C@@H](c2ccc(F)cc2)C1 | 25.9 µM [rising, single point] | –
35 | CCN(CCCNC(=O)c1cc2c(-c3cccc(OC)c3)nn(C)c2s1)Cc1ccccc1 | 14.1 µM [falling, single point] | –
36 | CC(C)Oc1nc(-c2ccc(Cl)cc2)nc2ccccc12 | 8.91 µM [rising, partial curve, poor fit] | –
37 | Cc1cnc(NC(=O)Cc2ccc(C)c(C)c2)s1 | 35.5 µM [falling, single point] | –
38 | Cc1ccc(N(C(C)C(=O)Nc2cc(Cl)ccc2Oc2ccccc2)S(C)(=O)=O)cc1 (configuration not stated) | 35.5 µM [falling, single point] | –
39 | CCCC(=O)Nc1nc2nc(-c3ccccc3)cc(=O)n2[nH]1 | 29.1 µM [falling, single point] | –
40 | Nc1nc(SCC(=O)Nc2ccc(Oc3ccccc3)cc2)n[nH]1 | 0.517 µM [rising, full curve, poor fit] | –
41 | Cn1cccc1Cc1nnc(SCC(=O)NC2CCCC2)n1-c1ccc(F)cc1 | 23.1 µM [falling, partial curve, poor fit] | –
42 | COc1ccc(Cl)cc1NC(=O)CSc1nnc(Cc2cccn2C)n1-c1ccc(F)cc1 | 23.1 µM [falling, single point] | –
43 | O=C(O)/C=C/c1coc2ccc(F)cc2c1=O | 14.6 µM [rising, partial curve, poor fit] | –
44 | COc1ccc([C@H]2CC(=O)C=C(c3ccc(-c4ccccc4)c(F)c3)C2)cc1 | 0.0731 µM [rising, full curve, poor fit] | –

By substructure, those above containing a thiophene ring, fused or not.
Row | Compound | AC50 [1] | AC50 (measured here: IkBa-CBG green luminescence)
5 | O=C(N/N=C/c1cccs1)c1[nH]ncc1Br | 14.1 µM [falling, partial curve] | –
20 | CN1CCc2c(sc3c2C(=O)NC(c2ccc4c(c2)OCO4)N3)C1 (configuration not stated) | 23.1 µM [falling, partial curve, poor fit] | –
26 | Cc1ccc(-n2cnc3sc(C)c(C)c3c2=O)cc1 | 22.4 µM [rising, partial curve, poor fit] | –
35 | CCN(CCCNC(=O)c1cc2c(-c3cccc(OC)c3)nn(C)c2s1)Cc1ccccc1 | 14.1 µM [falling, single point] | –

More structures follow:

Row | Compound | AC50 [1] | AC50 (measured here: IkBa-CBG green luminescence)
45 | O=c1cc(C(F)(F)F)nc(SCc2cccc3ccccc23)[nH]1 | 35.5 µM [falling, single point] | –
46 | Cc1ccc(OCC(=O)Nc2ccc(O)c(C(=O)O)c2)cc1C | 16.4 µM [falling, partial curve, poor fit] | –
47 | O=C(Nc1nnc(S(=O)(=O)N2CCCCCC2)s1)c1ccc(Cl)cc1 | 10 µM [rising, partial curve, poor fit] | –
48 | CC(C)N(C)C1CCN(C(=O)Nc2ccc(Cl)c(Cl)c2)CC1 | 35.5 µM [falling, single point] | –
49 | COc1ccc(CNC(=O)CN(C)S(=O)(=O)c2ccc3c(c2)c(=O)n(C)c(=O)n3C)cc1 | 6.31 µM [rising, single point] | –
50 | O=C(OC(C(=O)NCC1CCCO1)c1ccccc1F)c1ccco1 (configuration not stated) | 0.794 µM [rising, full curve, poor fit] | –
51 | O=C(N=Nc1c(O)n(Cc2ccccc2)c2ccccc12)c1cc2ccccc2cc1O | 0.651 µM [falling, full curve] | –
52 | CC/C(=N\NC(N)=O)c1ccc(OC(F)F)cc1 | 20 µM [rising, partial curve, poor fit] | –
53 | COc1cc(OC)c(NC(=O)Cc2cccs2)cc1Cl | 1.41 µM [rising, full curve] | –
54 | CCOC(=O)N1CCN(C(=O)CN(Cc2ccc(Cl)cc2)S(C)(=O)=O)CC1 | 3.66 µM [rising, full curve, poor fit] | –
55 | C/C=C(\C)c1nnc(NC(=O)c2ccco2)s1 | 0.0461 µM [rising, partial curve, poor fit] | –
56 | COc1ccc(Nc2ncnc3ccc(C)cc23)cc1 | 35.5 µM [falling, single point] | –
57 | CCN(CC)C(=O)C1CCCN(c2ccc([N+](=O)[O-])cc2/C=N/NC(=O)c2cccc(O)c2)C1 (configuration not stated) | 1.03 µM [falling, full curve, poor fit] | –
58 | CC1(C)Cc2ccccc2-c2nc(NN)[nH]c(=O)c21 | 2 µM [falling, partial curve, poor fit] | –
59 | Cc1cccc(SCC(=O)Nc2ccccc2[N+](=O)[O-])c1 | 12.6 µM [falling, partial curve, poor fit] | –
60 | COCCNCC(=O)Nc1ccc(OC(F)(F)F)cc1 | 5.62 µM [rising, partial curve, poor fit] | –
61 | COCC(=O)Nc1cc(C(=O)Nc2ccccc2C)ccc1Cl | 1.26 µM [falling, partial curve, poor fit] | –
62 | CCCS(=O)(=O)N1CCCC(C(=O)N2CCCCC2)C1 (configuration not stated) | 10 µM [rising, single point] | –
63 | Cc1cc(Nc2c(C)cccc2C)n2nc(C)nc2n1 | 32.6 µM [rising, single point] | –
64 | COc1ccc(CC(=O)NNC(=O)c2nn(Cc3ccccc3)c(=O)c3ccccc23)cc1OC | 7.94 µM [falling, partial curve, poor fit] | –
65 | Cc1cccc(Cc2nnc(CCC(=O)NCc3cn4ccccc4n3)o2)c1 | 1 µM [rising, full curve, poor fit] | –
66 | NNC(=O)c1cc2c(ccc3ccccc32)o1 | 11.2 µM [falling, single point] | –
